Measurements from the supplement of paper PMC11732987, “Enantioselective OTUD7B fragment discovery through chemoproteomics screening and high-throughput optimisation” (Communications Chemistry, 2025).
The list shows a part of the results. The data scatter; read single values as rough.

The chains behind the UniProt entries cited, without tags or fusion partners. Where a name states a change or a piece, a line headed by the entry shows the natural chain unless it says otherwise. Residues count along the entry.
UniProt Q9H9A6: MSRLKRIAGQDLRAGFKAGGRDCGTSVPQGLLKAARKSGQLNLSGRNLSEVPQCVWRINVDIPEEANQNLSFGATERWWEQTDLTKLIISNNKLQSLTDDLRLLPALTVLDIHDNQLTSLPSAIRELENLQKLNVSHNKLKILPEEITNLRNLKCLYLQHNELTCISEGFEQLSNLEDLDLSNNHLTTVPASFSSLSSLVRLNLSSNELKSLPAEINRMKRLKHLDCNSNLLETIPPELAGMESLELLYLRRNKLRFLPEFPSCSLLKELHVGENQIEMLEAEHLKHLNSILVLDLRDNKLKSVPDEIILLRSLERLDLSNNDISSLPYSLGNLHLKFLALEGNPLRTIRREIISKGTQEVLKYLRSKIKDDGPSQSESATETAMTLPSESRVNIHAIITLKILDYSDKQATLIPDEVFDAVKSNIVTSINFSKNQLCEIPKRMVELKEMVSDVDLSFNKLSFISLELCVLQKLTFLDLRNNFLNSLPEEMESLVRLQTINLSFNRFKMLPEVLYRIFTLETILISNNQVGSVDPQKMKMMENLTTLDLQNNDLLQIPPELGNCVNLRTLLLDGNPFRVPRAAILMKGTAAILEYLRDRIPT
UniProt Q9NXL9: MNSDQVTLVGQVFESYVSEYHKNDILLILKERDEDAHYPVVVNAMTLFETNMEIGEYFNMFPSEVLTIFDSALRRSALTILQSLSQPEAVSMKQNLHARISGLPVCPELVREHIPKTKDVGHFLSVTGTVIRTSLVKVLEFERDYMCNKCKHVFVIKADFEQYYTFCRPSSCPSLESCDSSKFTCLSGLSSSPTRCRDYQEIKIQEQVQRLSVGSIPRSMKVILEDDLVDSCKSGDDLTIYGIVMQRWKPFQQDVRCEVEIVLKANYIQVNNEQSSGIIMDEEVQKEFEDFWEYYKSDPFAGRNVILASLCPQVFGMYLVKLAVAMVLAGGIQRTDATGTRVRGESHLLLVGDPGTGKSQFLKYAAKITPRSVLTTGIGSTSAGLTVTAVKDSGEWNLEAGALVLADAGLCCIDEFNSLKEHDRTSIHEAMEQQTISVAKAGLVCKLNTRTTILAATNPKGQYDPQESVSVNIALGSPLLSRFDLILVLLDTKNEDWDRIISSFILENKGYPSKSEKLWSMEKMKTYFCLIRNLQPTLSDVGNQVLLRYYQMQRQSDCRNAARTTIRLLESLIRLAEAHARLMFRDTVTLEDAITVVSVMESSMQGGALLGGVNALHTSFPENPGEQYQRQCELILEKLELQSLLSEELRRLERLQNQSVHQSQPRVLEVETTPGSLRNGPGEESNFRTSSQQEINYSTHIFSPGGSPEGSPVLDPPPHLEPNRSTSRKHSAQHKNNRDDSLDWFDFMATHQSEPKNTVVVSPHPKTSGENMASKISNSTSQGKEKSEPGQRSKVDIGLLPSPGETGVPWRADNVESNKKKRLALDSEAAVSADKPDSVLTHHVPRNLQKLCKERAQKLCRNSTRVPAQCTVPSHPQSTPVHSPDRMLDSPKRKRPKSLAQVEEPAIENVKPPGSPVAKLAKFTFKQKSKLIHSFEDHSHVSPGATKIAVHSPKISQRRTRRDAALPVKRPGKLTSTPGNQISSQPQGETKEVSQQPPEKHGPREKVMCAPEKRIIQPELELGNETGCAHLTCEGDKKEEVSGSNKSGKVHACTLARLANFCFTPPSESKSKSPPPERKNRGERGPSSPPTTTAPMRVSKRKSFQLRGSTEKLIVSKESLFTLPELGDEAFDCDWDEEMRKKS
UniProt O60318: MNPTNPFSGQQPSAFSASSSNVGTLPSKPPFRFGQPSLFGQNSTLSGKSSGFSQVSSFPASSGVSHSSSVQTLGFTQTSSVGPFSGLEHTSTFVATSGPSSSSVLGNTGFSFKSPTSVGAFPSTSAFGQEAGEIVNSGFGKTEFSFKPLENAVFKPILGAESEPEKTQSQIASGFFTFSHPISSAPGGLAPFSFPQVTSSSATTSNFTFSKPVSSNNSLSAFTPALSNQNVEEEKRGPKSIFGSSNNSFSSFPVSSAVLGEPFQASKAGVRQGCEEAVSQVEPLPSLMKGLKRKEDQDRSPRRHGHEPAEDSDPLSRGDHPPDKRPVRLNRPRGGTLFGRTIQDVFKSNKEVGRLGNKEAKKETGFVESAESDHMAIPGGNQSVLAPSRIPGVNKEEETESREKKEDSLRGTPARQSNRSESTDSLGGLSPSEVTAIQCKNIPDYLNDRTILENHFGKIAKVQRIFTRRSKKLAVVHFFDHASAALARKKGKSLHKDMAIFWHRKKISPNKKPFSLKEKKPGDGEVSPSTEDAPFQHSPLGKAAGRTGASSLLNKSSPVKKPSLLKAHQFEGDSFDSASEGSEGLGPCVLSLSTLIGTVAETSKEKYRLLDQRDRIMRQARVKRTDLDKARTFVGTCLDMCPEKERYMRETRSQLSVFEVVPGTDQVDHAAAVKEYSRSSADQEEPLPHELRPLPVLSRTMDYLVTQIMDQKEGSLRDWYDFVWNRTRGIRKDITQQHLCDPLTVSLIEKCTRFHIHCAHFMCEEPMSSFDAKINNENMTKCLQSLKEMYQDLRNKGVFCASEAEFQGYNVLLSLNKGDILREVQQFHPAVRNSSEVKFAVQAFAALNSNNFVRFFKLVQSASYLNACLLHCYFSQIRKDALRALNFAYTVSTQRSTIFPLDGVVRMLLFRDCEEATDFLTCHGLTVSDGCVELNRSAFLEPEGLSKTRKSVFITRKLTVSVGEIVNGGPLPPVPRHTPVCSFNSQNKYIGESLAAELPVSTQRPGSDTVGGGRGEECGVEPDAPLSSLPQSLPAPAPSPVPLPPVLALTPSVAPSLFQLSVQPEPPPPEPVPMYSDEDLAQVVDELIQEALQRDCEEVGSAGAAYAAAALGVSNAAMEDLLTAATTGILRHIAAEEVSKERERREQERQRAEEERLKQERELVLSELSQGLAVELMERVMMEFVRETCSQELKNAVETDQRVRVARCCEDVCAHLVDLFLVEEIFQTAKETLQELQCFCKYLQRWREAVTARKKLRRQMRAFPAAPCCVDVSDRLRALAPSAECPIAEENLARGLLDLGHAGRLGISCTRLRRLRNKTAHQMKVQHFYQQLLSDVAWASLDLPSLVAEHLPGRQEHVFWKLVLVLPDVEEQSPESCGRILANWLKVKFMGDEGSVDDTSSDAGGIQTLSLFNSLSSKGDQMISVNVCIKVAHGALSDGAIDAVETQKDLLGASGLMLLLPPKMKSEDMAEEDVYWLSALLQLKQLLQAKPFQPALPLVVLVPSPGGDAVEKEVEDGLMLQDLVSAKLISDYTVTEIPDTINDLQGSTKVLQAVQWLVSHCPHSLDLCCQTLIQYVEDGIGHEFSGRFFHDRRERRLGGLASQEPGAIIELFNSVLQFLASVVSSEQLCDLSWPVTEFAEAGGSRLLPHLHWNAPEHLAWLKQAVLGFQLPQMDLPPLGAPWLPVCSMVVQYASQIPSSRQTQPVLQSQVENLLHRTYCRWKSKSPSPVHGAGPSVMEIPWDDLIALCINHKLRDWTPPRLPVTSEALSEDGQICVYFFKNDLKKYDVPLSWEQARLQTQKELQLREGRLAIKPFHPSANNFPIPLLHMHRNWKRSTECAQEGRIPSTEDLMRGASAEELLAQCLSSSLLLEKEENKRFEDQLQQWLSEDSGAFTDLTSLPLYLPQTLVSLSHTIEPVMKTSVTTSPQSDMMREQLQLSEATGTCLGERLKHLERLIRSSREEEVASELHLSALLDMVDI
UniProt P07948: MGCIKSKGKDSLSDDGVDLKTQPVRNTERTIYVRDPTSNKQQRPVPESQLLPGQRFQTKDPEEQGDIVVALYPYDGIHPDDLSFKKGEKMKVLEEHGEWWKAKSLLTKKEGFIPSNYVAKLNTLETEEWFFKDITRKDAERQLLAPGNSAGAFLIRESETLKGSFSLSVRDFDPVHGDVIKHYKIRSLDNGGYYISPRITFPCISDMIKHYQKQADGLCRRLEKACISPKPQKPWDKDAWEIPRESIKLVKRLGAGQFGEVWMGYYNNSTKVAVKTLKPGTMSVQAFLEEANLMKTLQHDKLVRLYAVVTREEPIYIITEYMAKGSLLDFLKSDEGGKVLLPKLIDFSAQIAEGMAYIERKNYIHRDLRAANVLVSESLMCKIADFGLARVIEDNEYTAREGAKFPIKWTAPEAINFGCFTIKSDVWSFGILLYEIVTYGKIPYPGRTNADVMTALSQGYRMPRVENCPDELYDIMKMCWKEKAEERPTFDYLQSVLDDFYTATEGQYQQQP
UniProt Q9UIS9, 503-528: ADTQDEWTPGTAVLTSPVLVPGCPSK
UniProt Q16644, 193-218: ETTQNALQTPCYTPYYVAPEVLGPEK
UniProt Q9NTJ4: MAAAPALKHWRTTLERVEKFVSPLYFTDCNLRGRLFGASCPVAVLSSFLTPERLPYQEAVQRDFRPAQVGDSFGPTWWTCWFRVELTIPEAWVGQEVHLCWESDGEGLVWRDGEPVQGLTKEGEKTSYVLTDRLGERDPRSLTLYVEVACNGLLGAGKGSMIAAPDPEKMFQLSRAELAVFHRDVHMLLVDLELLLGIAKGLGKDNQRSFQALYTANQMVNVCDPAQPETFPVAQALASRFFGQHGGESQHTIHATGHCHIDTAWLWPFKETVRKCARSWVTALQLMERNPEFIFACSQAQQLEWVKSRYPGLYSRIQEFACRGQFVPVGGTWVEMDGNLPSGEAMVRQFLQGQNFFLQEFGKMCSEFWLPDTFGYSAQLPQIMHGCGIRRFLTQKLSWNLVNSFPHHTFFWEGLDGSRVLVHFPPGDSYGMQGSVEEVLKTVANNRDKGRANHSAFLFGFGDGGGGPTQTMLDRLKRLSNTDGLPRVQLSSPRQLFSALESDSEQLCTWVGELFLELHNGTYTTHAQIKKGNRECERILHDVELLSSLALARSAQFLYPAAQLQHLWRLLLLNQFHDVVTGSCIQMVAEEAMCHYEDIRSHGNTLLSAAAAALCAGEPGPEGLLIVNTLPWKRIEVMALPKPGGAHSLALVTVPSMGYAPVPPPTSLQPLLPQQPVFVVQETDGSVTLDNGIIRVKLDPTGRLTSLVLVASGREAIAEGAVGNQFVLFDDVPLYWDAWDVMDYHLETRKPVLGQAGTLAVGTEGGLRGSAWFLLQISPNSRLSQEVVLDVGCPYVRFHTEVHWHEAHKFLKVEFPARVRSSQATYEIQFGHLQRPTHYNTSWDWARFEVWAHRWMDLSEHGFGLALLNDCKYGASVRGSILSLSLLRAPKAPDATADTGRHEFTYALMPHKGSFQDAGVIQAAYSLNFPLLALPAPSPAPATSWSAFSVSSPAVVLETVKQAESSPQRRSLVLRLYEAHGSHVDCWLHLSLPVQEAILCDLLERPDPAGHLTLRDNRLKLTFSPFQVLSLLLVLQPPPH
UniProt P33991: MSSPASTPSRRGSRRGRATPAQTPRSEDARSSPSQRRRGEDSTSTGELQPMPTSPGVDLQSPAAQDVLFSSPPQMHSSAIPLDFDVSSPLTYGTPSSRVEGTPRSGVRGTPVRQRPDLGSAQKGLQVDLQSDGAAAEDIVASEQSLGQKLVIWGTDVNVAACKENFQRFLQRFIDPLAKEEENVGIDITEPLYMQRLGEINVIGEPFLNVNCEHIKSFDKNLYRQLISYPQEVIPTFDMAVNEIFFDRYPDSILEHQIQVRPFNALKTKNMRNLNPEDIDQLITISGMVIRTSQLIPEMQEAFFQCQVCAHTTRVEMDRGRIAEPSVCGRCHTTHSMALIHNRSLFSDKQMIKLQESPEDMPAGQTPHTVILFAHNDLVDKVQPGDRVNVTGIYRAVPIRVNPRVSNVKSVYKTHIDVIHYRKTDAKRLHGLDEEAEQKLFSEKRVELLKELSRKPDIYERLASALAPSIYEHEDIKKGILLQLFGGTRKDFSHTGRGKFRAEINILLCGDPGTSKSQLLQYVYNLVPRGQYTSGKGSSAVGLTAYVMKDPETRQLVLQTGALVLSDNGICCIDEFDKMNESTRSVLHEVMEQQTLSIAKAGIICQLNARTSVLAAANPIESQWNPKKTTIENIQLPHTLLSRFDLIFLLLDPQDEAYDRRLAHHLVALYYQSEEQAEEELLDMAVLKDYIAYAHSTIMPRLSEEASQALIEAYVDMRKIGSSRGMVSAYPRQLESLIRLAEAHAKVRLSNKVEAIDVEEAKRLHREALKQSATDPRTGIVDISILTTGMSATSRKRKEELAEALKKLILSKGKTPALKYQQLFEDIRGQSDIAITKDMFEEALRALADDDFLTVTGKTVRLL
UniProt Q16539: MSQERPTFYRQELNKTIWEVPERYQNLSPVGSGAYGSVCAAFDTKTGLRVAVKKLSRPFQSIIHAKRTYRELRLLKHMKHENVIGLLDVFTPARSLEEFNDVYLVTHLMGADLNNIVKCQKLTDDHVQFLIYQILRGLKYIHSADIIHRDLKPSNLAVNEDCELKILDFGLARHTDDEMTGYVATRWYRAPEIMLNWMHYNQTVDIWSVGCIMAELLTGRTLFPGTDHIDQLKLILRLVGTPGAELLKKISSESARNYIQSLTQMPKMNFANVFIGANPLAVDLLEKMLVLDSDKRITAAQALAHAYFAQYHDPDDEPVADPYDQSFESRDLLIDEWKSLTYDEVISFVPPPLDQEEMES

Each target was assayed with ClCC(=O)N[C@@H]1CCCc2ccccc12 (assay: log2 mean competition ratio of IA-DTB cysteine labelling (DMSO/compound) (log2 ratio); higher = stronger cysteine engagement by compound). Settings: 50 µM; treatment time: 4 h; cell line lysate: HEK293T.
Procedure: (§1)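 IA-DTB competitive cysteine chemoproteomics in HEK293T RIPA lysate. Lysates were treated with compound 29 or 30 at 50 or 200 µM for 4 h, then IA-DTB (500 µM, 1 h), trypsin-digested, NeutrAvidin-enriched and analysed by diaPASEF. Competition ratio = intensity DMSO / intensity compound (n=4 treated, n=64 DMSO); binding: mean log2 CR ≥ 1 and p ≤ 0.05 plus QC filters. Target is the cysteine site.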
With MBNL3 C180 the “log2 mean competition ratio” value was -0.188.
In the case of LRRC40 C438 (UniProt Q9H9A6), the “log2 mean competition ratio” value is reported as 0.177.
For LRRC41 C266 (UniProt Q15345), the “log2 mean competition ratio” value was -0.0478.
MBTPS1 C849 (UniProt Q14703) was tested, and the “log2 mean competition ratio” value was -0.289.
MCM9 C106 (UniProt Q9NXL9) was tested, and the “log2 mean competition ratio” value was -0.0561.
MAD1L1 C568 (UniProt Q9Y6D9) was tested, and the “log2 mean competition ratio” value was -0.0551.
MCTS2P C14, A0A3B3IRV3 was tested, and the “log2 mean competition ratio” value was 0.157.
In the case of MAP9 C239, the “log2 mean competition ratio” value is reported as -0.136.
For LRRC8C C774, the “log2 mean competition ratio” value was 0.25.
In the case of MAP3K2 C405 (UniProt Q9Y2U5), the “log2 mean competition ratio” value is reported as -0.416.
With MACF1 C5049 the “log2 mean competition ratio” value was 0.377.
In the case of MAP2K6 C38 (UniProt P52564), the “log2 mean competition ratio” value is reported as 0.0773.
MCRS1 C84 (UniProt Q96EZ8) was tested, and the “log2 mean competition ratio” value was 0.0582.
For MAP7D1 C361 (UniProt Q3KQU3), the “log2 mean competition ratio” value was 0.241.
With MCM5 C397 (UniProt P33992) the “log2 mean competition ratio” value was 0.416.
In the case of MAP7D3 C521 (UniProt Q8IWC1), the “log2 mean competition ratio” value is reported as 0.0363.
For MAP4K3 C555 (UniProt Q8IVH8), the “log2 mean competition ratio” value was 0.0568.
MCM3AP C1428 (UniProt O60318) was tested, and the “log2 mean competition ratio” value was 0.157.
For LRRFIP1 C644 (UniProt Q32MZ4), the “log2 mean competition ratio” value was -0.141.
With LYN C468 (UniProt P07948) the “log2 mean competition ratio” value was -0.107.
With MBD1 C525 (UniProt Q9UIS9) the “log2 mean competition ratio” value was -0.0212.
MAPKAPK3 C203 (UniProt Q16644) was tested, and the “log2 mean competition ratio” value was -0.123.
For MAPK3 C82, the “log2 mean competition ratio” value was 0.00733.
In the case of MAN2C1 C322 (UniProt Q9NTJ4), the “log2 mean competition ratio” value is reported as 0.0873.
In the case of MCM4 C328 (UniProt P33991), the “log2 mean competition ratio” value is reported as -0.168.
In the case of MAF C46, the “log2 mean competition ratio” value is reported as -0.0728.
MAP3K20 C571 (UniProt Q9NYL2) was tested, and the “log2 mean competition ratio” value was -0.191.
For M6PR C132 (UniProt P20645), the “log2 mean competition ratio” value was -0.077.
With LRRC42 C373 (UniProt Q9Y546) the “log2 mean competition ratio” value was 0.181.
MCMBP C325 (UniProt Q9BTE3) was tested, and the “log2 mean competition ratio” value was 0.416.
With MAP2K7 C260 (UniProt O14733) the “log2 mean competition ratio” value was -0.0119.
MACF1 C5131 was tested, and the “log2 mean competition ratio” value was 0.199.
LRRC8C C165 was tested, and the “log2 mean competition ratio” value was 0.065.
For MAP3K7 C588 (UniProt O43318), the “log2 mean competition ratio” value was 0.114.
LZTR1 C342 (UniProt Q8N653) was tested, and the “log2 mean competition ratio” value was -0.16.
MAPK14 C162 (UniProt Q16539) was tested, and the “log2 mean competition ratio” value was -0.202.
MACF1 C2895 was tested, and the “log2 mean competition ratio” value was -0.0987.

Same assay, conditions: 200 µM; treatment time: 4 h; cell line lysate: HEK293T
For MBNL3 C180, the “log2 mean competition ratio” value was 0.323.
For LRRC40 C438 (UniProt Q9H9A6), the “log2 mean competition ratio” value was -0.11.
With LRRC41 C266 (UniProt Q15345) the “log2 mean competition ratio” value was 0.117.
With MBTPS1 C849 (UniProt Q14703) the “log2 mean competition ratio” value was 0.0387.
With MCM9 C106 (UniProt Q9NXL9) the “log2 mean competition ratio” value was -0.024.
For MAD1L1 C568 (UniProt Q9Y6D9), the “log2 mean competition ratio” value was 0.848.
MCTS2P C14, A0A3B3IRV3 was tested, and the “log2 mean competition ratio” value was -0.273.
In the case of MAP9 C239, the “log2 mean competition ratio” value is reported as -0.229.
For LRRC8C C774, the “log2 mean competition ratio” value was 0.0616.
In the case of MAP3K2 C405 (UniProt Q9Y2U5), the “log2 mean competition ratio” value is reported as -0.387.
In the case of MACF1 C5049, the “log2 mean competition ratio” value is reported as 0.193.
MAP2K6 C38 (UniProt P52564) was tested, and the “log2 mean competition ratio” value was -0.0931.
In the case of MCRS1 C84 (UniProt Q96EZ8), the “log2 mean competition ratio” value is reported as -0.109.
In the case of MAP7D1 C361 (UniProt Q3KQU3), the “log2 mean competition ratio” value is reported as -0.145.
MCM5 C397 (UniProt P33992) was tested, and the “log2 mean competition ratio” value was 0.0813.
In the case of MAP7D3 C521 (UniProt Q8IWC1), the “log2 mean competition ratio” value is reported as 0.00639.
For MAP4K3 C555 (UniProt Q8IVH8), the “log2 mean competition ratio” value was -0.115.
In the case of MCM3AP C1428 (UniProt O60318), the “log2 mean competition ratio” value is reported as 0.3.
LRRFIP1 C644 (UniProt Q32MZ4) was tested, and the “log2 mean competition ratio” value was -0.107.
With LYN C468 (UniProt P07948) the “log2 mean competition ratio” value was -0.115.
In the case of MBD1 C525 (UniProt Q9UIS9), the “log2 mean competition ratio” value is reported as 0.0558.
MAPKAPK3 C203 (UniProt Q16644) was tested, and the “log2 mean competition ratio” value was -0.12.
With MAPK3 C82 the “log2 mean competition ratio” value was 0.0172.
For MAN2C1 C322 (UniProt Q9NTJ4), the “log2 mean competition ratio” value was -0.0388.
With MCM4 C328 (UniProt P33991) the “log2 mean competition ratio” value was -0.215.
With MAF C46 the “log2 mean competition ratio” value was 0.24.
With MAP3K20 C571 (UniProt Q9NYL2) the “log2 mean competition ratio” value was 0.172.
M6PR C132 (UniProt P20645) was tested, and the “log2 mean competition ratio” value was 0.624.
LRRC42 C373 (UniProt Q9Y546) was tested, and the “log2 mean competition ratio” value was -0.293.
MCMBP C325 (UniProt Q9BTE3) was tested, and the “log2 mean competition ratio” value was 0.629.
MAP2K7 C260 (UniProt O14733) was tested, and the “log2 mean competition ratio” value was 0.315.
For MACF1 C5131, the “log2 mean competition ratio” value was -0.068.
With LRRC8C C165 the “log2 mean competition ratio” value was 0.0723.
For MAP3K7 C588 (UniProt O43318), the “log2 mean competition ratio” value was 0.0953.
For LZTR1 C342 (UniProt Q8N653), the “log2 mean competition ratio” value was -0.135.
With MAPK14 C162 (UniProt Q16539) the “log2 mean competition ratio” value was -0.106.
In the case of MACF1 C2895, the “log2 mean competition ratio” value is reported as 0.364.

What follows are targets tested with ClCC(=O)N[C@H]1CCCc2ccccc12 in the same assay as above. Settings: 50 µM; treatment time: 4 h; cell line lysate: HEK293T.
Procedure: as §1
With LRRC40 C438 (UniProt Q9H9A6) the “log2 mean competition ratio” value was 0.118.
In the case of MCM9 C106 (UniProt Q9NXL9), the “log2 mean competition ratio” value is reported as -0.173.
MCTS2P C14, A0A3B3IRV3 was tested, and the “log2 mean competition ratio” value was -0.7.
In the case of MACF1 C5049, the “log2 mean competition ratio” value is reported as 0.0177.
In the case of MCM5 C397 (UniProt P33992), the “log2 mean competition ratio” value is reported as 0.0553.
With LYN C468 (UniProt P07948) the “log2 mean competition ratio” value was -0.163.
In the case of MBD1 C525 (UniProt Q9UIS9), the “log2 mean competition ratio” value is reported as 0.0117.
MAPK3 C82 was tested, and the “log2 mean competition ratio” value was -0.178.
MCM4 C328 (UniProt P33991) was tested, and the “log2 mean competition ratio” value was 0.285.
MCMBP C325 (UniProt Q9BTE3) was tested, and the “log2 mean competition ratio” value was 0.252.
With MACF1 C5131 the “log2 mean competition ratio” value was 0.636.

Same assay, conditions: 200 µM; treatment time: 4 h; cell line lysate: HEK293T
With LRRC40 C438 (UniProt Q9H9A6) the “log2 mean competition ratio” value was -0.121.
MCM9 C106 (UniProt Q9NXL9) was tested, and the “log2 mean competition ratio” value was -0.00559.
MCTS2P C14, A0A3B3IRV3 was tested, and the “log2 mean competition ratio” value was 0.072.
In the case of MACF1 C5049, the “log2 mean competition ratio” value is reported as 0.0486.
With MCM5 C397 (UniProt P33992) the “log2 mean competition ratio” value was 0.063.
MCM3AP C1428 (UniProt O60318) was tested, and the “log2 mean competition ratio” value was -0.182.
For LYN C468 (UniProt P07948), the “log2 mean competition ratio” value was 0.12.
With MBD1 C525 (UniProt Q9UIS9) the “log2 mean competition ratio” value was 0.184.
MAPK3 C82 was tested, and the “log2 mean competition ratio” value was -0.0444.
In the case of MAN2C1 C322 (UniProt Q9NTJ4), the “log2 mean competition ratio” value is reported as 0.0966.
In the case of MCM4 C328 (UniProt P33991), the “log2 mean competition ratio” value is reported as -0.0359.
For MCMBP C325 (UniProt Q9BTE3), the “log2 mean competition ratio” value was 0.0259.
In the case of MACF1 C5131, the “log2 mean competition ratio” value is reported as -0.245.
